# No constants are given. Whether binding was seen depends on the method and setting. Binding seen in cells or lysates may run through a third protein. These calls come from enrichment with a bait or labelling near it, and not all partners need be listed.
# T1: FBXL6 pulled down with an anti-FBXL6 antibody in HCC cells (UniProt Q8N531)
# T1 sequence: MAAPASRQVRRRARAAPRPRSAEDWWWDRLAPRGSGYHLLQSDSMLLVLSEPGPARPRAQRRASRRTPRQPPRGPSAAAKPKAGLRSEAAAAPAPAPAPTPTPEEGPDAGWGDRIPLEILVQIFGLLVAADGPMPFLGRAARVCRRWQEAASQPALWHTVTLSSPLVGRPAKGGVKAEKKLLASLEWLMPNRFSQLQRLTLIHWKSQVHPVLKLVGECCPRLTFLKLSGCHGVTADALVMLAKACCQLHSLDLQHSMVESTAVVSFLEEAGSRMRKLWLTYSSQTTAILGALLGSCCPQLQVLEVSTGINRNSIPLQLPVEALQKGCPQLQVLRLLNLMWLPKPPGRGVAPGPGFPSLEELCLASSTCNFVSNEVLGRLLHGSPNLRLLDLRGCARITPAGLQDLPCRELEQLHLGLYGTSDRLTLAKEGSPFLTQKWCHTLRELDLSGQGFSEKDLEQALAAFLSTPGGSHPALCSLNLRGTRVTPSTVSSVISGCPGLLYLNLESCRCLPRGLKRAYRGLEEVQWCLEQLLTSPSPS
# B1: TKT (transketolase) found in the anti-FBXL6 pulldown from HCC cells (protein, UniProt P29401 1-623)
# chain: MESYHKPDQQKLQALKDTANRLRISSIQATTAAGSGHPTSCCSAAEIMAVLFFHTMRYKSQDPRNPHNDRFVLSKGHAAPILYAVWAEAGFLAEAELLNLRKISSDLDGHPVPKQAFTDVATGSLGQGLGAACGMAYTGKYFDKASYRVYCLLGDGELSEGSVWEAMAFASIYKLDNLVAILDINRLGQSDPAPLQHQMDIYQKRCEAFGWHAIIVDGHSVEELCKAFGQAKHQPTAIIAKTFKGRGITGVEDKESWHGKPLPKNMAEQIIQEIYSQIQSKKKILATPPQEDAPSVDIANIRMPSLPSYKVGDKIATRKAYGQALAKLGHASDRIIALDGDTKNSTFSEIFKKEHPDRFIECYIAEQNMVSIAVGCATRNRTVPFCSTFAAFFTRAFDQIRMAAISESNINLCGSHCGVSIGEDGPSQMALEDLAMFRSVPTSTVFYPSDGVATEKAVELAANTKGICFIRTSRPENAIIYNNNEDFQVGQAKVVLKSKDDQVTVIGAGVTLHEALAAAELLKKEKINIRVLDPFTIKPLDRKLILDSARATKGRILTVEDHYYEGGIGEAVSSAVVGEPGITVTHLAVNRVPRSGKPAELLKMFGIDRDAIAQAVRGLITKA
# Molecular target: T1, FBXL6 pulled down with an anti-FBXL6 antibody in HCC cells
# Assay: affinity purification with mass spectrometry; pulldown with an anti-FBXL6 antibody in HCC cells; 180 candidate interacting proteins
binder,measurement,value
B1,binding,binds

# Source: paper PMC10618235
